Measurements reported in PubChem BioAssay AID504834 (National Center for Advancing Translational Sciences (NCATS), 2011).
Out of some 320,000 compounds screened, about 22,000 (6.9%) were called active. The inconclusive results got no clear call from the source; some entries with a clear call stand among them for comparison. Calls follow the shape of the dose curve; as a rule, active = well fitted inhibition curve with a large enough effect; inconclusive = small, poorly fitted or top-dose-only effect, or another doubt; inactive = no such curve, though single readings can be large or run the other way. Where the call is inconclusive, the potency comes from a doubtful curve fit.

Assay: Primary qHTS for delayed death inhibitors of the malarial parasite plastid, 96 hour incubation
Conditions: P. falciparum luciferase reporter growth; series mostly up to 28.7 µM; activity change, negative = inhibition: at the top concentration
Description: The goal of this screen is to discover new antimalarial compounds that act by inhibiting the development of the apicoplast in the malarial parasite Plasmodium falciparum. The biochemical processes that make this organelle essential for erythrocytic stage parasites are not well understood. However, antibiotics such as azithromycin and tetracycline, which target the apicoplast translational machinery, have a potent antimalarial effect.
We have developed a cell-based assay that measures parasite growth based on the expression of an integrated copy of a firefly luciferase reporter. To detect small molecules that cause this "delayed death" phenotype, erythrocytes infected with the luciferase-expressing parasites were incubated with compounds for either one or two generations, corresponding to 48 and 96 hours, respectively. Compounds that inhibit parasite growth in the second generation, but not the first, should be enriched in antimalarials that target the apicoplast. Growth inhibition is detected by a decrease in luciferase activity.
Assay Provider: David Fidock and Eric Ekland, Columbia University
Keywords: NIH Roadmap, MLPCN, MLI, MLSMR, qHTS, NCGC, qHTS, malaria, luciferase, viability
Four microliters of infected erythrocytes (2% hematocrit, 0.05% parasitemia final concentration) in culture medium were dispensed and the plates incubated for 96 hours at 37 C in 5% CO2. Two microliters of luciferase detection reagent was added and luminescence was detected by a ViewLux (PerkinElmer) reader.
% is scaled to controls: 0 for no effect and ±100 for the full control effect; potency is read from the fitted curve at half-maximal effect.

Structure (SMILES)	Potency	activity change, negative = inhibition
CC1CCN(C(=O)C2Cc3ccccc3CN2S(=O)(=O)c2ccc(F)cc2)CC1 (centres undefined)	inconclusive: 16.5 µM [inhibitor, partial curve, poor fit]	
COc1cccc(NC(=O)c2cc([N+](=O)[O-])ccc2NCc2cccnc2)c1	inconclusive: 10.4 µM [inhibitor, single point]	
Cc1ccc2nc(Nc3ccc(F)cc3)c3nncn3c2c1		inactive: -3.39%
O=C(COC(=O)/C=C/c1cccs1)NC1CC1		inactive: -2.65%
CC(C)CCN1NC2(CCC(C)CC2)NC1=S (centres undefined)	inconclusive: 14.7 µM [inhibitor, partial curve, poor fit]	
O=C(COc1ccc(Br)cc1Cl)c1ccc[nH]1		inactive: 193%
COc1ccc(CN(C)S(=O)(=O)c2nnc(NC(=O)c3ccccc3)s2)cc1OC	inconclusive: 18.5 µM [inhibitor, single point]	
CC(NC(=O)/C(C#N)=C/c1ccc(N2CCOCC2)cc1)c1ccccc1 (centres undefined)	inconclusive: 0.147 µM [inhibitor, full curve, poor fit]	
CCc1ccc(S(=O)(=O)c2nnn3c2nc(N2CCOCC2)c2ccccc23)cc1		inactive: 25.6%
COCCn1c(-c2ccc(Cl)cc2)nc2c(c(=O)c3ccccc3n2C)c1=O	active: 8.28 µM	
c1ccc(CSC2=NCCS2)cc1		inactive: -15.8%
CN(C)CCCNS(=O)(=O)c1ccc(Oc2ncc(C(F)(F)F)cc2Cl)cc1	inconclusive: 4.65 µM [inhibitor, partial curve]	
CCn1c(CN2CCOCC2)nnc1SCC(=O)Nc1ccc(C)cc1	inconclusive: 18.5 µM [inhibitor, single point]	
Cc1ccc(N2Cc3ccccc3C2=S)cc1	inconclusive: 4.15 µM [inhibitor, single point]	
COc1ccc(NC(=O)CCN2C(=O)C3C4C=CC(C4)C3C2=O)cc1 (centres undefined)		inactive: 44.7%
CCCCCn1c(N)c(C(=O)NCc2cccs2)c2nc3ccccc3nc21	inconclusive: 18.5 µM [inhibitor, single point]	
COc1ccc(NC(=O)C2CCCN(c3ncccn3)C2)cc1 (centres undefined)		inactive: -2.65%
COc1ccc(OC)c(NC(=O)C(=O)NCCC2=CCCCC2)c1		inactive: -17.1%
O=C(O)Cn1c2c(c3ccccc31)CCCC2		inactive: 226%
CN(CCOc1ccc(Cl)cc1)C(=O)c1ccc(S(=O)(=O)N2CCOCC2)cc1	inconclusive: 4.15 µM [inhibitor, partial curve, poor fit]	
CCCCC(CC)C(=O)Nc1cc(C(=O)NCc2ccc(C)cc2)ccc1N1CCC2(CC1)CC(c1ccccc1)=NO2 (centres undefined)	active: 2.08 µM	
O=C(Nc1ccc(F)cc1)N1CCCN(c2ccc(C(F)(F)F)cn2)CC1	inconclusive: 2.33 µM [inhibitor, partial curve]	
COc1ccccc1-c1nc(C#N)c(N2CC(C)CC(C)C2)o1 (centres undefined)	inconclusive: 6.57 µM [inhibitor, partial curve]	
CCCc1c(O)nc(SCC(=O)O)[nH]c1=O	inconclusive: 10.4 µM [inhibitor, single point]	
COc1ccc(S(=O)(=O)N2CCCCCC2)cc1C(=O)Nc1cc(C)ccn1	active: 10.4 µM	

Structure (SMILES)	Potency	activity change, negative = inhibition
O=C(NC1CCN(S(=O)(=O)c2ccccc2C(F)(F)F)CC1)c1ccco1		inactive: 9.86%
COC(=O)CCC(=O)Nc1ccccc1C(N)=O		inactive: -1.21%
COC(=O)c1cn(Cc2cc(OC)ccc2OC)cc(F)c1=O		inactive: 5.83%
COc1ccc(C)cc1NC(=O)CN1CCN(c2ccccn2)CC1	inconclusive: 18.5 µM [inhibitor, single point]	
Cc1cccc(NC(=O)CN2C(=O)N/C(=C/c3cc(C)n(-c4cccnc4)c3C)C2=O)c1	inconclusive: 11.7 µM [inhibitor, single point]	
N#C/C(=C\c1c(F)cccc1Cl)c1nn(-c2ccccc2)c(-n2cccc2)c1C#N	inconclusive: 11.7 µM [inhibitor, partial curve, poor fit]	
CCCCN1CCc2c1nc1ccc(Br)cc1c2N	active: 1.65 µM	
Cc1cccc(NC(=O)CN2C(=O)CCSc3ccc(S(=O)(=O)N4CCOCC4)cc32)c1C	inconclusive: 4.15 µM [inhibitor, single point]	
O=C(CSc1ncn[nH]1)Nc1ccc(S(=O)(=O)Nc2ncccn2)cc1		inactive: 43.4%
COc1ccc(C(=O)NC(=S)N2CCCC2)cc1	active: 13.1 µM	
CCC(C)c1ccccc1NC(=O)CN(C)CC(=O)Nc1ccccc1SC (centres undefined)	inconclusive: 10.4 µM [inhibitor, partial curve]	
Cc1[nH]c(-c2ccc(F)cc2)cc1C(=O)N1CCN(c2ccccc2)CC1		inactive: 20%
Cc1ccc(C)c(S(=O)(=O)N2CCCCC2CCNC(=O)C(=O)NCc2ccco2)c1 (centres undefined)	inconclusive: 9.28 µM [inhibitor, single point]	
O=C(COc1cccc(NC(=O)c2ccccc2)c1)c1ccccc1		inactive: 0%
Cc1ccccc1NC(=O)/C(C#N)=C/c1ccsc1	inconclusive: 18.5 µM [inhibitor, single point]	
COc1ccc(/C=C2\C(=O)c3ccccc3OC2c2ccccc2)cc1 (centres undefined)	inconclusive: 11.7 µM [inhibitor, partial curve, poor fit]	
COc1cccc(-c2nc3c(c(=O)[nH]c(=O)n3Cc3ccccc3)n2CCO)c1OC(F)F	inconclusive: 0.0738 µM [inhibitor, full curve, poor fit]	
O=S1(=O)CC(O)C(Nc2ccccc2)C1 (centres undefined)		inactive: 17.2%
O=C(CNC(=O)c1cccc(Br)c1)N/N=C/c1ccc2c(c1)OCO2		inactive: 28.4%
Cc1cccc(C)c1N(CC(=O)N1CCOCC1)S(C)(=O)=O	inconclusive: 18.5 µM [inhibitor, single point]	
CSc1ccc(CNC(=O)CCn2ccc3cc(S(=O)(=O)N4CCCC4)ccc32)cc1	inconclusive: 10.4 µM [inhibitor, partial curve, poor fit]	
Brc1cc2c(cc1COc1ccc(-c3nn[nH]n3)cc1)OCO2		inactive: 9.96%
CC(O)/C=C/C1OC(=O)CC1Nc1ccc(C=O)cc1 (centres undefined)	active: 7.38 µM	
O=C(O)c1ccc(N2C(=O)CC(N3CCC(c4nc5ccccc5[nH]4)CC3)C2=O)cc1 (centres undefined)		inactive: 5.38%

Grouped by structure, those above containing a CF3 group (3)
Structure (SMILES)	Potency	activity change, negative = inhibition
CN(C)CCCNS(=O)(=O)c1ccc(Oc2ncc(C(F)(F)F)cc2Cl)cc1	inconclusive: 4.65 µM [inhibitor, partial curve]	
O=C(Nc1ccc(F)cc1)N1CCCN(c2ccc(C(F)(F)F)cn2)CC1	inconclusive: 2.33 µM [inhibitor, partial curve]	
O=C(NC1CCN(S(=O)(=O)c2ccccc2C(F)(F)F)CC1)c1ccco1		inactive: 9.86%
